In patent publication US6797511:
No constants are given. Whether binding was seen depends on the method and setting. In cells and extracts the contact can be indirect. Binding can be weak; no strength is given.

Target: cadherin protein coexpressed in vitro with ALARM
Test: co-immunoprecipitation with anti-ALARM sera, proteins coexpressed in vitro

B1: ALARM (adherens-junction linked arm protein), captured protein transcribed and translated in vitro (protein)
chain: MRSLSQSQGVPLPPAHTGTYRTSTAPSSPGVDSVPLQRTGSQHGPQNAAAATFQRASYAAGPASNYADPYRQLQYCPSVESPYSKSGPALPPEGTLARSPSIDSIQKDPREFGWRDPELPEVIQMLQHQFPSVQSNAAAYLQHLCFGDNKIKAEIRRQGGIQLLVDLLDHRMTEVHRSACGALRNLVYGKANDDNKIALKNCGGIPALVRLLRKTTDLEIRELVTGVLWNLSSCDALKMPIIQDALAVLTNAVIIPHSGWENSPLQDDRKIQLHSSQVLRNATGCLRNVSSPGEEARRRMRECDGLTDALLYVIQSALGSSEIDSKTVENCVCILRNLSYRLAAETSQGQHMGTDELDGLLCGEANGKDAESSGCWGKKKKKKKSQDQWDGVGPLPDCAEPPKGIQMLWHPSIVKPYLTLLSECSNPDTLEGAAGALQNLAAGSWKWSVYIRAAVRKEKGRPILVELLRIDNDRVACAVATALRNMALDVRNKELIGKYAMRDLVHRLPGGNNSNNTASKAMSDDTVTAVCCTLHEVITKNMENAKALRDAGGIEKLVGISKSKGDKHSPKVVKAASQVLNSMWQYRDLRSLYKKDGWSQYHFVASSSTIERDRQRPYSSSRTPSISPVRVSPNNRSASAPASPREMISLKERKTDYECTGSNATYHGAKGEHTSRKDAMTAQNTGISTLYRNSTRNYDESFFEDQVHHRPPASEYTMHLGLKSTGNYVDFYSAARPYSELNYETSHYPASPDSWV
With B1 the binding was “binds”.
